In patent publication US4578245A, “Multilayer analytical element” (Fuji Photo Film Co., Ltd., priority 1982, dated 1986):

Test: Relative Sensitivity of Analytical Slide (Multilayer Analytical Element)
Conditions: glucose 100 mg/dl human whole blood vs distilled water; 37° C., 6 min; 500 nm; (C1) = 1.0

Structure (SMILES)	Relative Sensitivity (Slide)
Cc1c(N)c(=O)n(-c2cccc(Cl)c2)n1C [(1)]	1.4
Cn1c(-c2ccccc2)c(N)c(=O)n1-c1ccccc1 [(18)]	1.9
Cn1c(-c2ccccc2)c(N)c(=O)n1C [(C2), reference compound]	1.0
Cc1c(N)c(=O)n(-c2c(Cl)cc(Cl)cc2Cl)n1C [Compound (6)]	1.9
Cc1c(N)c(=O)n(-c2ccccc2)n1C [Compound (C1), 4-amino-2,3-dimethyl-1-phenyl-3-pyrazolin-5-one, reference compound]	1.0
